Our source for the AC50 and cell number change values is PubChem BioAssay AID2685 (National Center for Advancing Translational Sciences (NCATS), 2010).

The nature of this assay: qHTS Assay for Lipid Storage Modulators in Drosophila S3 Cells.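 On cell number change: cells counted by Cell Tracker Red CMTPX staining in the red channel.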 The settings on record: BODIPY lipid droplet fluorescence, 18-24 h; for cell number change: measured here: cell count max response, cells fed with added oleic acid. In a few lines: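 Laser-scanning cytometry quantifies lipid droplet accumulation (500–530 nm total intensity; droplet/cell object ratio) in oleic acid-fed (400 uM added) Drosophila S3 cells treated with a concentration series. 20 uM Triacsin C defined 100% inhibition.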

Where [1] appears, read: measured here: lipid fluorescence (Fed channel) AC50, cells fed with added oleic acid.
[2] abbreviates: measured here: cell number channel AC50, cells fed with added oleic acid.

SMILES strings stand for the structures. “And” between values parts separate entries of the source, which are not always exact repeats. Equal entries are not always repeated. The list shows a part of the results. Further columns of the screen follow, without active or inactive calls. Compounds called inactive in the main read-out are mostly missing here. The note in brackets gives the kind of curve behind each potency; many fits are weak.

With `CCN(CC)CCNC(=O)c1ccccc1N`, under setting [1], the AC50 (commonly the concentration at which the activity in the assay is half-maximal) is 0.116 µM [falling, full curve, poor fit]. Consider `O=C(C1CCC(CNc2c(N3CCCCC3)c(=O)c2=O)CC1)N1CCN(c2ccccn2)CC1` (stereo not given), for which the cell number change was determined as 18%. Under setting [1], the half-maximal activity concentration (AC50) was 29.1 µM [rising, single point]. `Cc1cc(C)c(C#N)c(Cl)n1`: the AC50 under setting [2] was 0.082 µM [rising, full curve, poor fit]. Consider `CN(C)C(CNC(=O)c1ccccc1C(F)(F)F)c1ccco1` (stereo not given), for which the cell number change was -0.806%. In the case of `CC(C)(C)NC(=O)CN(C(=O)CS(=O)CC(=O)Nc1ccc(F)cc1)c1ccc(F)c(Cl)c1` (stereo not given), the cell number change was 3.41%. Further, the AC50 under setting [1] is 3.66 µM [rising, single point]. In the case of `Cc1ccc(S(=O)(=O)NCCC(=O)Nc2ccc(S(=O)(=O)NC(C)C)cc2)cc1`, the concentration at half-maximal activity (AC50) under setting [1] is 1.03 µM [rising, full curve].

Consider `Cc1ccccc1OCc1nnc(SCC(=O)N2c3ccccc3Sc3ccc(Cl)cc32)o1`, for which the cell number change is -19.5%. Further, the AC50 under setting [1] is 20.6 µM [falling, partial curve, poor fit]. Consider `CCc1nnc(NC(=O)C2CC(=O)N(C3CCCCC3)C2)s1` (stereo not given), for which the cell number change is -31%.

For `O=C(COC(=O)c1ccc(Cl)nc1)NCCNC(=O)COC(=O)c1ccc(Cl)nc1`, the cell number change was 6.39%. The AC50 under setting [1] is 0.184 µM [falling, full curve, poor fit].

As to `CC(C)CCNC(=O)COC(=O)c1cc(Br)c(Br)s1`, the cell number change is -12.3%. The same measure, in the same setting: as for `COc1ccc2c(c1)C(=O)N(c1ccccc1OC)C(=O)C2`, the figure is 19.5%.

For `CCN(CC)CCNC(=O)c1c(O)c2cccc3c2n(c1=O)CCC3`, the cell number change came to 49.2%. Moreover, the AC50 under setting [2] is 4.11 µM [rising, partial curve].

Take `Cc1ccc(N2CC(C(=O)N/N=C/c3sccc3C)CC2=O)cc1` (stereo not given): the cell number change is -23.1%. The half-maximal activity concentration (AC50) under setting [2] was 2.31 µM [falling, single point]. For the same compound, the AC50 under setting [1] was 14.6 µM [rising, partial curve, poor fit]. `O=C(c1ccc(F)c(S(=O)(=O)N2CCOCC2)c1)N1CCN(c2ccc(F)cc2)CC1`: the cell number change was 3.01%. Moreover, under setting [1], the concentration at half-maximal activity (AC50) was 6.51 µM [rising, single point]. `O=c1[nH][nH]c(C(F)(F)F)c1C=Nc1cccc(Cl)c1`: the cell number change turned out to be 19%.

`COc1ccc(/C=C/C(=O)c2ccc(C)c([N+](=O)[O-])c2)cc1O`: the cell number change was -20.4%. As to `CCOc1ccc(Nc2nc(NCC3CCCO3)c3ccccc3n2)cc1` (stereo not given), the cell number change is -74.9%. In addition, the AC50 under setting [2] was 16.4 µM [falling, partial curve]. In addition, the AC50 under setting [1] was 18.4 µM [falling, single point].

With `COc1ccc(-c2cc(-c3ccc(OC)cc3)nc(-c3ccc4c(c3)NC(=O)CO4)c2)cc1`, the cell number change was -18.2%. Moreover, the half-maximal activity concentration (AC50) under setting [1] is 0.291 µM [rising, partial curve, poor fit]. As to `COc1cc(NC(=O)CSCc2ccc(Cl)cc2Cl)c(C(=O)O)cc1OC`, the cell number change was -3.3%. Further, under setting [1], the AC50 was 6.51 µM [rising, single point]. As to `CCC(Sc1ccc2nnc(-c3cccnc3)n2n1)C(=O)OC` (stereo not given), the cell number change is -24.4%. Consider `CC(C)(C#N)N([O-])C=C[N+](=O)C(C)(C)C#N`, for which the cell number change was -22.4%. Moreover, the concentration at half-maximal activity (AC50) under setting [2] is 0.0517 µM [falling, full curve, poor fit]. For the same compound, the concentration at half-maximal activity (AC50) under setting [1] was 4.11 µM [falling, full curve]. For the compound `C=C(C)COc1ccc2c3c(c(=O)oc2c1OCC(=C)C)CCC3`, the cell number change was -0.917%.

As to `COc1ccccc1CN(Cc1nc2ccccc2c(=O)[nH]1)S(=O)(=O)c1ccc(C)cc1`, the cell number change was determined as 24%. Under setting [2], the AC50 is 2.31 µM [rising, full curve, poor fit]. Moreover, the AC50 under setting [1] is 6.51 µM [rising, partial curve]. As to `COc1ccccc1N(CC(=O)Nc1ccc(Cc2ccncc2)cc1)S(=O)(=O)c1ccccc1`, under setting [1], the half-maximal activity concentration (AC50) was 35.5 µM [falling, single point]. As to `Cc1ccc(NC(=O)CN(C)CC(=O)N(CC(C)C)c2c(N)n(CC(C)C)c(=O)[nH]c2=O)c(C)c1`, the cell number change turned out to be 26.3%. Further, under setting [1], the AC50 is 6.51 µM [rising, full curve]. `Cc1ccc(/C=N/NC(=O)CSc2nc3ccccc3n2Cc2ccccc2)o1`: the cell number change was found to be 6.98%. In addition, under setting [2], the AC50 was 6.51 µM [rising, single point]. In addition, under setting [1], the AC50 was 0.0651 µM [rising, full curve]. For the compound `Cc1ccc(NC(=S)N/N=C2\CC3CC=CC23)c(C)c1` (stereo not given), the cell number change was -21.3%. In addition, the AC50 under setting [1] is 18.4 µM [falling, single point]. Take `COc1ccc(OC)c(CCNC(=O)CC2(CC3=NS(=O)(=O)c4ccccc4N3)CCCC2)c1`: the cell number change is -26.3%.

For `Cc1ccc(-c2cc(C(=O)O)c3cc(Br)ccc3n2)s1`, the cell number change was -34% and 3.55%.

On to `Cc1c(NC(=O)c2nn3c(C(F)(F)F)cc(-c4ccccc4)nc3c2Cl)c(=O)n(-c2ccccc2)n1C`, for which the cell number change worked out at 34%. Moreover, the half-maximal activity concentration (AC50) under setting [2] was 13 µM [rising, single point]. `O=C(COc1ccc(Cl)c2cccnc12)N1CCOCC1`: the cell number change was 2.81%. Further, the AC50 under setting [1] was 6.51 µM [rising, partial curve, poor fit]. For the compound `CCOc1cc(N2CCOCC2)c(OCC)cc1NC(=O)c1cc(-c2ccco2)nc2ccccc12`, the cell number change is -58.3%. Also, the AC50 under setting [2] was 18.4 µM [falling, partial curve]. The half-maximal activity concentration (AC50) under setting [1] was 32.6 µM [falling, single point]. As to `Cc1cc(OCC(=O)OCC(=O)N2CC(C)CC(C)C2)ccc1Cl` (stereo not given), the cell number change turned out to be 19.7%. Besides, the concentration at half-maximal activity (AC50) under setting [2] was 4.11 µM [falling, single point]. In addition, the AC50 under setting [1] was 4.11 µM [falling, single point]. On to `Cc1cc(Cn2nnc3ccccc32)c(O)c(C(C)(C)C)c1`, for which the cell number change is -39.2%. Besides, under setting [1], the AC50 is 29.1 µM [falling, single point]. Turning to `CC(=O)N1N=C(c2ccco2)CC1c1ccco1` (stereo not given), the cell number change is 10.9%.

Take `O=C(Nc1ccnn1C1CCN(C(=O)c2cc(Cl)ccc2F)CC1)C1CCOC1` (stereo not given): the cell number change was -3.62%. Under setting [1], the half-maximal activity concentration (AC50) is 6.51 µM [falling, partial curve, poor fit]. In the case of `COC(=O)c1sccc1NC(=O)Nc1ccccc1OC`, the cell number change was 11%. For `CCC1=Nc2cc(C(=O)NCc3ccco3)ccc2Sc2ccccc21`, the half-maximal activity concentration (AC50) under setting [1] was 29.1 µM [falling, single point]. As to `COc1ccc(C)cc1NC(=O)CCCNC(=O)Cn1cnc2sc(C)c(C)c2c1=O`, the cell number change came to 24.3%.

As to `COc1ccc(/C=C2\SC(=S)N(CC(=O)NCCO)C2=O)cc1`, the cell number change is -70.5%. For the same compound, the concentration at half-maximal activity (AC50) under setting [2] is 32.6 µM [falling, partial curve, poor fit]. Besides, the AC50 under setting [1] is 29.1 µM [falling, partial curve, poor fit].
